Measurements taken from patent publication US7829548B2, “Compounds useful in the treatment of HIV” (Medivir AB, priority 2004, dated 2010).
For at least one compound, name, drawing or mass did not settle the structure.

Test system: HIV-1 isolates from patient plasma samples
Format: cell-based
Procedure: The susceptibility of 2′,3′-dideoxy-3′-C-hydroxymethyl-cytosine on HIV-1 isolates from patient plasma samples that bear typical TAM primer rescue mutant resistant genotypes is determined by the commercially available PhenoSense HIV assay (described in Petropoulos, C J et al., (2000) Antimicrob. Agents Chemother. 44:920-928 and performed by ViroLogics, Inc). The assay is performed by amplifying the protease (PR)-RT segment of the HIV pol gene from patient plasma and inserting the amplification products into a modified HIV-1 vector derived from an NL4-3 molecular clone.
Viral stocks are prepared by co-transfecting 293 cell cultures with recombinant viral DNA vector and an expression vector that produces the amphotropic murine leukemia virus envelope proteins. Pseudotyped virus particles are harvested from the transfected cell cultures and are used to infect fresh 293 cell cultures. The recombinant viral DNA contains a luciferase gene cassette within the HIV env gene region and the production of luciferase in target cells is dependent on the completion of one round of virus replication. Drug susceptibility is measured by adding serial concentrations of the compound of the invention and the reference compounds to the cells. Drugs that inhibit virus replication reduce luciferase signal in a dose-dependent manner, providing a quantitative measure of drug susceptibility.

**Q.** What does the source list for `Nc1ccn([C@@H]2CS[C@H](CO)O2)c(=O)n1` [Compound 3TC, lamivudine]?
**A.** fold difference in susceptibility (patient isolate 19 (M184V + TAMs), compared to wild type HIV): lost activity; fold reduction in susceptibility (patient isolates 20 and 21, isolate not specified, compared to wildtype): lost potency
